Among all 400,000 compounds or so, about 13,000 (3.2%) were called active. Inconclusive results, whose numbers are uncertain, are shown with a selection of clear calls. The call rests on the fitted dose curve; in most records, active means well fitted cell-killing curve with a large enough effect; inconclusive means small, poorly fitted or top-dose-only effect, or effect the other way; inactive means flat fitted curve, though single readings scatter. Where the call is inconclusive, the potency comes from a doubtful curve fit.
Assay: qHTS assay for MDR1-selective chemotherapeutics: Primary screen using the drug-selected MDR subline cells KB-V1; further: nearly all actives have a fitted effect of over 60% in size
Details: KB-V1 MDR cells viability, CellTiter-Glo, 72 h; activity change, negative = cytotoxicity: at 46.1 µM (top of the series)
In short: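 Potencies derive from concentration-effect curves fitted to normalized luminescence (CellTiter-Glo) of KB-V1 cells treated for 72 h at 37 degrees C in phenol-red-free DMEM containing 10% FBS.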
On the % scale 0 is the no-effect control and ±100 the full control effect; potency means the concentration at half of the fitted maximal effect.

SMILES	Potency	activity change, negative = cytotoxicity
CCN(CC(=O)NCc1ccccc1Cl)CC(=O)Nc1c(F)cccc1F	inconclusive: 14.6 µM [cytotoxic, partial curve, poor fit]	–
COc1ccc(OC)c(NC(=O)C(C)n2nc(C)c3c(C)n(-c4ccccc4)nc3c2=O)c1 (stereo not given)	–	inactive: 17.8%
CN1CCN(S(=O)(=O)c2ccc(Oc3ccc(F)c(Cl)c3)nc2)CC1	inconclusive: 29.1 µM [rising, single point]	–
O=C(C(Cl)Cl)N1c2ccccc2OCC1c1ccccc1 (stereo not given)	inconclusive: 20.6 µM [cytotoxic, single point]	–
COc1cccc(CNC(=O)CN2C(=O)N(c3c(C)cccc3C)S(=O)(=O)c3ccccc32)c1OC	inconclusive: 29.1 µM [cytotoxic, single point]	–
CCOc1ccc(S(=O)(=O)N(C(=O)c2ccco2)c2cc3sc(=O)oc3c3ccccc23)cc1	inconclusive: 18.4 µM [cytotoxic, partial curve, poor fit]	–
COc1ccc(C(C)NC(=O)c2ccc(Cl)cc2)cc1OC (stereo not given)	active: 20.6 µM	–
CC(C)(C)NC(=O)NC(=O)COC(=O)c1ccco1	inconclusive: 13 µM [rising, single point]	–
O=C(O)CCC(=O)N1CCc2cc(S(=O)(=O)N3CCC(Cc4ccccc4)CC3)ccc21	inconclusive: 0.0116 µM [rising, full curve]	–
O=C(CSc1nnc(Cn2c(=O)sc3ccccc32)n1CCc1ccccc1)N1CCOCC1	active: 18.4 µM	–
CCn1cc(CN2N=C(C)CC2c2ccccc2)c(C)n1 (stereo not given)	–	inactive: -40.1%
COc1ccc(NC(=S)N(Cc2cccc(Br)c2)CC2CCC(C(=O)O)CC2)cc1 (stereo not given)	inconclusive: 18.4 µM [rising, single point]	–
COc1cc2c(C#N)c(N3CCCCC3)nc(N)c2c(N)n1	active: 8.2 µM	–
CCOc1ccc(NC(=O)Cn2nnc(C(=O)NCc3cccs3)c2N)cc1	inconclusive: 20.6 µM [rising, partial curve, poor fit]	–
COCCCNC(=O)C[C@@H]1C[C@@]2(C(=O)OC)CCCCC=C2N(Cc2ccc3c(c2)OCO3)C1=O	inconclusive: 10.3 µM [cytotoxic, partial curve, poor fit]	–
COc1cc2c(cc1OC)C(C)N(CCc1ccc(Cl)cc1)CC2 (stereo not given)	inconclusive: 2.06 µM [cytotoxic, partial curve, poor fit]	–
CCC(=O)Nc1nnc(SCC(=O)N2c3ccccc3CC2C)s1 (stereo not given)	inconclusive: 8.2 µM [cytotoxic, partial curve]	–
Cc1ccc(SCc2nn(C)c(Cl)c2C=O)cc1	inconclusive: 29.1 µM [cytotoxic, single point]	–
COc1ccc(N(CC(=O)NC2CCCCCC2)S(=O)(=O)c2ccccc2)cc1Cl	inconclusive: 5.8 µM [cytotoxic, full curve]	–
O=C(Nc1ccccc1C(=O)NCCCN1CCOCC1)c1ccc(Cl)cc1	–	inactive: -11.6%
OC[C@@H]1CN(CCN2CCOCC2)C[C@H](n2cnc3c(N4CCOCC4)ncnc32)O1	–	inactive: -2.05%
N#CCCn1cc(C(=O)Nc2ccc(C(=O)O)cc2)c(-c2cccc(Br)c2)n1	inconclusive: 23.1 µM [rising, partial curve]	–
C#Cc1ccc([C@H]2C=C(C(=O)O)O[C@@H](OCCCCO)C2)cc1	–	inactive: -3.13%

One compound at a time, as listed above. Values in the order: Potency	activity change, negative = cytotoxicity
`CCOc1ccc(S(=O)(=O)N(C(=O)c2ccco2)c2cc3sc(=O)oc3c3ccccc23)cc1` is listed with inconclusive: 18.4 µM [cytotoxic, partial curve, poor fit]	–
`Cc1ccc(SCc2nn(C)c(Cl)c2C=O)cc1` is listed with inconclusive: 29.1 µM [cytotoxic, single point]	–

Additional compounds follow:

SMILES	Potency	activity change, negative = cytotoxicity
O=C(Nc1ccccc1N1CCCCC1)c1cccc(Cl)c1	–	inactive: 10.4%
Cc1ccc2nc(N3C(=O)C(O)=C(C(=O)c4ccc(C)o4)C3c3cccc(O)c3)sc2c1 (stereo not given)	–	inactive: 6.26%
Cc1ccc(C(=O)N2CCC(C)CC2)cc1NC1=NC2CS(=O)(=O)CC2S1 (stereo not given)	inconclusive: 18.4 µM [rising, single point]	–
NNC(=O)CCC(=O)Nc1ccccc1	–	inactive: 0.749%
CC(=O)c1cccc(NC(=O)Cn2c(=O)oc3cc(S(=O)(=O)NC4CCCC4)ccc32)c1	–	inactive: 28%
Cn1c(N)c(C(=O)COC(=O)c2cc(C(F)(F)F)nc3ccccc23)c(=O)n(Cc2ccccc2)c1=O	inconclusive: 13 µM [cytotoxic, partial curve, poor fit]	–
CN(C)C(CNc1ncnc2sccc12)c1cccs1 (stereo not given)	inconclusive: 23.1 µM [rising, single point]	–
CCOC(=O)C1(CC2CC2)CCN(Cc2cnc(-c3ccc(OC)cc3)nc2)CC1	inconclusive: 8.2 µM [cytotoxic, partial curve]	–
COc1ccccc1-c1noc(-c2ccccc2C(=O)Nc2cccnc2)n1	active: 10.3 µM	–
O=C(CCNC(=O)c1ccc(Br)cc1)NCC(c1ccco1)N1CCCCC1 (stereo not given)	–	inactive: 0.991%
Cc1c(Cl)c([N+](=O)[O-])nn1CCCC(=O)Nc1cc(Oc2ccccc2)cc([N+](=O)[O-])c1	inconclusive: 14.6 µM [cytotoxic, partial curve]	–
O=c1c2ccccc2nnn1CCc1ccccc1	inconclusive: 29.1 µM [cytotoxic, single point]	–
Cc1ccc(C)c(Cn2c3ccccc3c3cnn(CC(=O)NCC(C)c4ccccc4)c(=O)c32)c1 (stereo not given)	–	inactive: 1.89%
Cn1c(N2CCOCC2)c(/C=N/OC(=O)c2cccnc2Cl)c2ccccc21	–	inactive: -17.6%
CCOc1ccc(NC(=O)CCC(=O)NNC(=O)COc2ccc(C)cc2Br)cc1	inconclusive: 5.17 µM [rising, partial curve, poor fit]	–
O=C(CNCC1CCCO1)Nc1ccccc1N1CCOCC1 (stereo not given)	inconclusive: 20.6 µM [cytotoxic, single point]	–
CCOC(=O)C1=NN(c2ccc(C)cc2)CC1C(=O)OC (stereo not given)	inconclusive: 18.4 µM [cytotoxic, single point]	–
O=C(CN1CCN(S(=O)(=O)N2CCCCC2)CC1)Nc1cc(Cl)cc(Cl)c1	inconclusive: 3.66 µM [cytotoxic, partial curve, poor fit]	–
C=CCNC(=S)NNC(=O)c1ccc(OCC(C)C)cc1	–	inactive: -4.41%
CC1=C(C(=O)OCc2ccc3c(c2)OCO3)C(c2ccccc2)NC(=O)N1 (stereo not given)	active: 11.6 µM	–
O=C(c1ccccc1Cl)N1CCc2ccccc2C1	–	inactive: -25.3%
CCC(C)(C)N1CC(=O)N(Cc2ccccc2)C(c2ccc(OC)cc2)C1=O (stereo not given)	inconclusive: 5.17 µM [cytotoxic, full curve]	–

From PubChem BioAssay AID1347076 (National Center for Advancing Translational Sciences (NCATS), 2019)
